Values from PubChem BioAssay AID686943 (Drosophila RNAi Screening Center, 2013).
Aim: 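Fly genes whose loss alters ERK activation after insulin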 (primary screen). Cell system: Drosophila S2R+ haemocyte-like cells expressing YFP-tagged ERK (Rolled). Reagent: long dsRNA against Drosophila genes. Treatment: insulin stimulation versus unstimulated cells; dose and duration not given. Measurement: 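Antibody staining for doubly phosphorylated ERK divided by ERK-YFP signal, as plate z-scores, in insulin-treated and untreated cells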. Direction: replicate 1, z-score of dpERK with insulin and replicate 2, z-score of dpERK with insulin: higher = more active ERK per ERK-YFP after insulin.
In all, the deposit lists about 23,000 reagents; this is an unselected part of those with a known target gene and a result. 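Extra replicates exist only for a retested subset of genes; insulin dose and duration not given; both raised and lowered dpERK matter.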 A plus sign joins genes that one reagent is predicted to hit. Not all columns of the deposit are shown. No sequences are given here. Not stated in the record: the amount of reagent, the time to read-out.

Which result is listed for dgt1 (dim gamma-tubulin 1) [DRSC15301]?
replicate 1, z-score of dpERK with insulin: -0.09; replicate 2, z-score of dpERK with insulin: -0.59

What did the screen give for CG13001 [DRSC19520]?
replicate 1, z-score of dpERK with insulin: 0.39; replicate 2, z-score of dpERK with insulin: 0.36

How did the screen score CG13001 [DRSC22443]?
replicate 1, z-score of dpERK with insulin: -0.04; replicate 2, z-score of dpERK with insulin: -0.1

How did the screen score Gbeta76C (G protein beta subunit 76C) [DRSC11174]?
replicate 1, z-score of dpERK with insulin: -0.28; replicate 2, z-score of dpERK with insulin: -0.38

Which result is listed for EMC2B (ER membrane protein complex subunit 2B) [DRSC15506]?
replicate 1, z-score of dpERK with insulin: -1.03; replicate 2, z-score of dpERK with insulin: 0.5

What did the screen give for gdrd (goddard) [DRSC10020]?
replicate 1, z-score of dpERK with insulin: 0.23; replicate 2, z-score of dpERK with insulin: 0.06

How did the screen score Irp-1B (Iron regulatory protein 1B) [DRSC16720]?
replicate 1, z-score of dpERK with insulin: -0.13; replicate 2, z-score of dpERK with insulin: 0.73

For CG14974 [DRSC08433], what was measured?
replicate 1, z-score of dpERK with insulin: -1.47; replicate 2, z-score of dpERK with insulin: -1.54

How did the screen score dmrt93B (doublesex-Mab related 93B) [DRSC15865]?
replicate 1, z-score of dpERK with insulin: 0.58; replicate 2, z-score of dpERK with insulin: 0

With TMEM216 + CG11760 [DRSC14375], what does the deposit list?
replicate 1, z-score of dpERK with insulin: -0.29; replicate 2, z-score of dpERK with insulin: -1.07

For CG32037 [DRSC10363], what does the deposit list?
replicate 1, z-score of dpERK with insulin: 1.08; replicate 2, z-score of dpERK with insulin: 0.27

For Ripalpha (RPA-interacting protein alpha) [DRSC02657], what does the deposit list?
replicate 1, z-score of dpERK with insulin: 0.4; replicate 2, z-score of dpERK with insulin: -0.01

What is on record for CG6071 [DRSC10579]?
replicate 1, z-score of dpERK with insulin: -0.69; replicate 2, z-score of dpERK with insulin: 0.82

What is on record for Wbp2 (WW domain binding protein 2) [DRSC09821]?
replicate 1, z-score of dpERK with insulin: 1.02; replicate 2, z-score of dpERK with insulin: 1

How did the screen score fax (failed axon connections) [DRSC11345]?
replicate 1, z-score of dpERK with insulin: -0.42; replicate 2, z-score of dpERK with insulin: 0.17

Which result is listed for sle + CG12592 [DRSC21387]?
replicate 1, z-score of dpERK with insulin: -0.46; replicate 2, z-score of dpERK with insulin: -0.57

How did the screen score hpRNA:CR32207 (hairpin RNA:CR32207) [DRSC09616]?
replicate 1, z-score of dpERK with insulin: 0; replicate 2, z-score of dpERK with insulin: 0.45

Which result is listed for CG14478 [DRSC06450]?
replicate 1, z-score of dpERK with insulin: 0.98; replicate 2, z-score of dpERK with insulin: 0.65

Which result is listed for CG43318 [DRSC14999]?
replicate 1, z-score of dpERK with insulin: 0.89; replicate 2, z-score of dpERK with insulin: 0.34

How did the screen score CG11378 [DRSC18627]?
replicate 1, z-score of dpERK with insulin: -0.6; replicate 2, z-score of dpERK with insulin: 0.3

Which result is listed for CG10646 [DRSC09764]?
replicate 1, z-score of dpERK with insulin: -0.3; replicate 2, z-score of dpERK with insulin: 0.28

2 successive reagents from above, quoted:
hpRNA:CR32207 (hairpin RNA:CR32207) [DRSC09616]: replicate 1, z-score of dpERK with insulin = 0; replicate 2, z-score of dpERK with insulin = 0.45
CG14478 [DRSC06450]: replicate 1, z-score of dpERK with insulin = 0.98; replicate 2, z-score of dpERK with insulin = 0.65
